Results taken from US8951340B2, “Water-insoluble coloring matter compound, ink using the water-insoluble coloring matter compound, thermal transfer recording sheet and resist composition for color filter” (Canon Kabushiki Kaisha, priority 2011, dated 2015).
Some entries repeat one wording, which the source may state once for all of them.

Assays:
[1] = Gamut, color tone and chroma of color filter made from resist composition; settings: for C* using bar No. 10 / Evaluation of chroma using bar No. 10: coloring agent 6.5 mg per 25 cm^2
Method: 120 parts of cyclohexanone was mixed with 12 parts of the water-insoluble coloring matter compound according to the present invention (1). The water-insoluble coloring matter compound was dispersed by an Attritor (made by Mitsui Mining Co., Ltd.) for 1 hour. Thus, an ink according to the present invention (11) was obtained.
22 parts of the above ink (11) was slowly added to a solution of 96 parts of cyciohexanone including 6.7 parts of an acrylic copolymerized composition containing n-butylmethacrylate, acrylic acid, and hydroxyethylmethacrylate in a mass monomer ratio of 40%:30%:30% (weight-average molecular weight of 10,000), respectively, 1.3 parts of dipentaerythritol pentaacrylate, and 0.4 parts of 2-benzyl-2-dimethylamino-1-(4-morpholinophenyl)-butanone(photopolymerization initiator), and the solution was stirred at room temperature for 3 hours. The solution was filtered with a 1.5 μm filter to obtain a magenta resist composition for a color filter (1) according to the present invention.
The above magenta resist composition for a color filter (1) was spin, coated onto a glass substrate, and dried at 90° C. for 3 minutes. The whole surface of the coating was exposed to light, and post-cured at 180° C. to produce a color filter (1).
The color filter (1) and the comparative color filter (1) above were placed on a contrast ratio measurement sheet, respectively, and the chromaticity (L*, a*, b*) in the L*a*b* color system was measured by a reflection densitometer SpectroLino (made by Gretag Macbeth GmbH). The chroma (C*) was calculated based on the measured value of color properties by the above equation.
(§1) It can be said that as the chromaticity is higher in the magenta gamut direction in the same L*, the chromaticity is closer to the magenta chromaticity represented by the Adobe RGB color space. The color tone was evaluated using the values of a* and b* at L*=50. A sample at L*=50 was formed by controlling the temperature when an image was formed using the SELPHY CP710.
(§2) A: a* is not less than 80, and b* is not more than −15 (much closer to the magenta chromaticity)
(§3) B: a* is not less than 60 and is less than 80, and b* is not more than −15 (closer to the magenta chromaticity)
(§4) C: a* is less than 60, and b* is not more than −15 (far from the magenta chromaticity)
(§5) It can be said that as C* in the same amount of coloring agent per unit area is higher, the lightness and the chroma are higher. The chroma was evaluated using the value of C* wherein the amount of the coloring agent per 25 cm^2 (5 cm×5 cm) of the color filter and the transfer image was 6.5 mg.
(§6) A: C* is not less than 80 (lightness and chroma are very high)
(§7) B: C* is not less than 70 and is less than 30 (lightness and chroma are high)
(§8) C: C* is less than 70 (lightness and chroma are low)

[2] = Color tone and chroma of transfer image from thermal transfer recording sheet; settings: for C* using bar No. 10 / Evaluation of chroma using bar No. 10: coloring agent 6.5 mg per 25 cm^2
Excerpt: While a mixed solution of 13.5 parts of the water-insoluble compound according to the present, invention (4) and 45 parts of methyl ethyl ketone/45 parts of toluene was stirred, 5 parts of a polyvinyl butyral resin (DENKA 3000-K; made by DENKI KAGAKU KOGYO KABUSHIKI KAISHA) was gradually added to the mixed solution to obtain an ink according to the present invention (12).
The above ink (12) was applied onto a polyethylene terephthalate film having a thickness of 4.5 μm (Lumirror; made by Toray Industries, Inc.; such that the thickness after drying was 1 μm, and dried to produce a thermal transfer recording sheet (1).
The thermal transfer recording sheet (1) and the comparative thermal transfer recording sheet (1) above were cut and attached, to a magenta part in an ink cassette for SELPHY CP710 (made by Canon Inc.), respectively, and an image was formed on a dedicated printing paper using a SELPHY CP710 (made by Canon Inc.). The formed images were solid, images of only a magenta color. The respective formed images were a transfer image (1) and a comparative transfer image (1), respectively. In each of the transfer images, the chromaticity (L*, a*, b*) in the L*a*b* color system was measured using a reflection densitometer SpectroLino (made by Gretag Macbeth GmbH). The chroma (C*) was calculated based on the measured value of color properties by the above equation.
as §1, §2, §3, §4, §5, §6, §7, §8

Compound	Evaluation of color tone at L* = 50 [1]	a* at L* = 50 [1]	b* at L* = 50 [1]	C* using bar No. 10 [1]	Evaluation of chroma using bar No. 10 [1]	Evaluation of color tone at L* = 50 [2]	a* at L* = 50 [2]	b* at L* = 50 [2]	C* using bar No. 10 [2]	Evaluation of chroma using bar No. 10 [2]
CCCCC(CC)CNc1ccc2c3c1C(=O)c1ccccc1-c3c(C(=O)c1ccccc1)c(=O)n2CCCC (centres unmarked) [Compound (4)]	A (a* is not less than 80, and b* is not more than −15 (much closer to the magenta chromaticity))	88.8	−27.2	92.2	A (C* is not less than 80 (lightness and chroma are very high))	A (a* is not less than 80, and b* is not more than −15 (much closer to the magenta chromaticity))	89.1	−28.2	93.4	A (C* is not less than 80 (lightness and chroma are very high))
CCCCn1c(=O)c(C(=O)c2ccccc2)c2c3c(c(Nc4ccc(C)cc4)ccc31)C(=O)c1ccccc1-2 [(3), reference compound]	–	–	–	–	–	C (a* is less than 60, and b* is not more than −15 (far from the magenta chromaticity))	54.7	−31.1	62.9	C (C* is less than 70 (lightness and chroma are low))
CCCCC(CC)CNc1ccc2c3c1C(=O)c1ccccc1-c3c(C(=O)c1ccc(OC)cc1)c(=O)n2CCCC (centres unmarked) [Compound (6)]	A (a* is not less than 80, and b* is not more than −15 (much closer to the magenta chromaticity))	87.1	−21.0	89.5	A (C* is not less than 80 (lightness and chroma are very high))	A (a* is not less than 80, and b* is not more than −15 (much closer to the magenta chromaticity))	86.8	−20.5	88.7	A (C* is not less than 80 (lightness and chroma are very high))
Cn1c(=O)cc2c3c(c(Nc4ccccc4)ccc31)C(=O)c1ccccc1-2 [(1), reference compound]	C (a* is less than 60, and b* is not more than −15 (far from the magenta chromaticity))	40.6	−18.0	44.4	C (C* is less than 70 (lightness and chroma are low))	–	–	–	–	–
CCCCOCCCNc1ccc2c3c1C(=O)c1ccccc1-c3c(C(=O)c1ccccc1)c(=O)n2CC(CC)CCCC (centres unmarked) [Compound (10)]	A (a* is not less than 80, and b* is not more than −15 (much closer to the magenta chromaticity))	86.4	−22.0	87.8	A (C* is not less than 80 (lightness and chroma are very high))	A (a* is not less than 80, and b* is not more than −15 (much closer to the magenta chromaticity))	85.9	−23.1	89.1	A (C* is not less than 80 (lightness and chroma are very high))
CCCCC(CC)CNc1ccc2c3c1C(=O)c1ccccc1-c3c(C(=O)c1ccccc1)c(=O)n2C (centres unmarked) [Compound (14)]	–	–	–	–	–	A (a* is not less than 80, and b* is not more than −15 (much closer to the magenta chromaticity))	88.6	−27.1	90.2	A (C* is not less than 80 (lightness and chroma are very high))
CCCCNc1ccc2c3c1C(=O)c1ccccc1-c3c(C(=O)c1ccccc1)c(=O)n2CCCC [Compound (21)]	A (a* is not less than 80, and b* is not more than −15 (much closer to the magenta chromaticity))	82.3	−28.1	87.2	A (C* is not less than 80 (lightness and chroma are very high))	–	–	–	–	–
CCCCC(CC)CNc1ccc2c3c1C(=O)c1ccccc1-c3c(C(=O)c1ccccc1)c(=O)n2CC(CC)CCCC (centres unmarked) [Compound (8)]	A (a* is not less than 80, and b* is not more than −15 (much closer to the magenta chromaticity))	82.0	−28.3	86.6	A (C* is not less than 80 (lightness and chroma are very high))	A (a* is not less than 80, and b* is not more than −15 (much closer to the magenta chromaticity))	82.2	−28.5	86.9	A (C* is not less than 80 (lightness and chroma are very high))
CCCCC(CC)CNc1ccc2c3c1C(=O)c1ccccc1-c3c(C(C)=O)c(=O)n2CCCC (centres unmarked) [Compound (1)]	A (a* is not less than 80, and b* is not more than −15 (much closer to the magenta chromaticity))	85.2	−20.9	87.7	A (C* is not less than 80 (lightness and chroma are very high))	A (a* is not less than 80, and b* is not more than −15 (much closer to the magenta chromaticity))	84.8	−20.7	87.2	A (C* is not less than 80 (lightness and chroma are very high))
Cc1ccc(Nc2ccc3c4c(cc(=O)n3C)-c3ccccc3C(=O)c24)cc1 [(2), reference compound]	C (a* is less than 60, and b* is not more than −15 (far from the magenta chromaticity))	38.6	−13.0	40.7	C (C* is less than 70 (lightness and chroma are low))	C (a* is less than 60, and b* is not more than −15 (far from the magenta chromaticity))	36.5	−10.6	38.0	C (C* is less than 70 (lightness and chroma are low))
